The numbers were not newly measured in PMC2673089 (Journal of pharmaceutical sciences, 2008), which cites them from elsewhere.

The series addresses NET. The settings on record: read-out: NET Ki; mean ± SEM; cited from earlier work.

For orientation: Ki means a dissociation constant, usually derived from enzyme kinetics or from competition with a known ligand. For the compound `CN1[C@@H]2CC[C@H]1C[C@@H](OC(c1ccccc1)c1ccccc1)C2` [BZT, benztropine, reference compound], the Ki was 1390 ± 134 nM.
